Measured values published in PubChem BioAssay AID2685 (National Center for Advancing Translational Sciences (NCATS), 2010).
This is one part of the list. The main result of the screen is listed elsewhere. These columns were measured beside it and carry no call. Most of these compounds were active or inconclusive in the main read-out, so they are no random draw. Words in brackets tell the shape of the fitted curve; partial curves, single points and poor fits give uncertain potencies.

Assay: qHTS Assay for Lipid Storage Modulators in Drosophila S3 Cells;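 on cell number change: cells counted by Cell Tracker Red CMTPX staining in the red channel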
Details: BODIPY lipid droplet fluorescence, 18-24 h; for cell number change: measured here: cell count max response, cells fed with added oleic acid
Method in brief: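 Drosophila S3 cells loaded with oleic acid (400 uM, as added) and compounds at several concentrations; lipid droplets imaged by 488-nm laser-scanning cytometry, 500–530 nm intensity and object ratio to cell channel. Percent activity normalized to 20 uM Triacsin C.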

[1] = measured here: lipid fluorescence (Fed channel) AC50, cells fed with added oleic acid
[2] = measured here: cell number channel AC50, cells fed with added oleic acid

## Cc1cc(=O)[nH]c(SCn2nnc3ccccc3c2=O)n1
  cell number change: 11.4%
[1]
  AC50: 2.91 µM [falling, single point]

## COc1cc(NC(=O)CSc2nc3c(C)ccc(C)c3cc2C)c(C(=O)O)cc1OC
  cell number change: 36.8%
[2]
  AC50: 8.2 µM [rising, partial curve]
[1]
  AC50: 20.6 µM [rising, single point]

## COc1cccc(-n2c(C)nn(CCOc3ccccc3)c2=O)c1
  cell number change: 17.3%

## CN1CCN(CCC(=O)Nc2ccccc2)CC1
  cell number change: -8.92%

## NS(=O)(=O)c1ccc(CNC(=O)c2ccc3c(=O)n4c(nc3c2)CCC4)cc1
  cell number change: -31.1%
[2]
  AC50: 4.11 µM [falling, full curve]
[1]
  AC50: 3.66 µM [falling, full curve]

## COc1cccc(CC(=O)Nc2nc(-c3ccc(OC)c(OC)c3)cs2)c1
  cell number change: 30.3%
[2]
  AC50: 0.461 µM [rising, full curve]

## O=C(NCCNC(=O)c1cnccn1)c1ccc(Cl)c(Cl)c1
  cell number change: 7.89%

## CC(C#N)(NC(=O)CN1CCN(S(=O)(=O)c2ccccc2C#N)CC1)C1CC1 (stereo not given)
  cell number change: 8.39%
[1]
  AC50: 11.6 µM [rising, partial curve]

## Cc1c(C(=O)Nc2ccc3c(c2)OCCO3)oc2ccc(Br)cc12
  cell number change: -1.48%
[1]
  AC50: 29.1 µM [falling, single point]

## COc1ccc(C(CCNCc2ccc(F)cc2)c2ccc(F)cc2)cc1 (stereo not given)
[2]
  AC50: 6.51 µM [falling, single point]
[1]
  AC50: 29.1 µM [falling, single point]

## O=C(CSc1nnc(SCc2ccc(Cl)cc2)s1)c1ccc2c(c1)OCO2
  cell number change: -4.9%
[1]
  AC50: 0.58 µM [rising, full curve, poor fit]

## O=C(NCc1ccccc1)c1nc(S(=O)(=O)Cc2ccccc2)ncc1Cl
  cell number change: 13%
[2]
  AC50: 2.06 µM [falling, partial curve]
[1]
  AC50: 6.51 µM [falling, partial curve, poor fit]

## O=c1[nH]n(Cc2ccccc2)c2ccccc12
  cell number change: 30.7%
[2]
  AC50: 1.3 µM [rising, full curve, poor fit]

## CCOc1ccc(-n2nc3c(=O)n(CCN4CCCCC4)nc(C)c3c2C)cc1
  cell number change: 11.2%
[1]
  AC50: 4.61 µM [rising, single point]

## COc1ccc(C2C3=C(CCCC3=O)Nc3c(-c4ccccc4)c(C)nn32)cc1 (stereo not given)
  cell number change: -27.7%
[1]
  AC50: 8.2 µM [falling, partial curve, poor fit]

## O=C(c1cccc(S(=O)(=O)N2CCN(c3ccc(F)cc3)CC2)c1)N1CCCC(C(F)(F)F)C1 (stereo not given)
[1]
  AC50: 25.9 µM [falling, single point]

## CC(=O)Oc1ccc(N2C(=O)CC(N3CCOCC3)C2=O)cc1 (stereo not given)
  cell number change: 6.21%

## CCOC(=O)CP(=O)(c1ccccc1)c1ccccc1
  cell number change: -28.3%
[2]
  AC50: 0.00517 µM [falling, full curve, poor fit]
[1]
  AC50: 1.64 µM [falling, full curve]

## COCCNC(=O)CN(CC1CCCO1)C(=O)CCC(=O)Nc1ccccn1 (stereo not given)
  cell number change: -38.2%
[2]
  AC50: 29.1 µM [falling, single point]
[1]
  AC50: 29.1 µM [falling, single point]

## CCN(CC(=O)Nc1cc(Cl)ccc1C)C(=O)C1CC(=O)N(Cc2ccccc2)C1 (stereo not given)
  cell number change: 59%

## O=C(Cn1c(=O)c2cccn2c2ccc(F)cc21)NCCCN1CCN(c2ccccc2F)CC1
  cell number change: 32.7%
[2]
  AC50: 23.1 µM [rising, single point]
[1]
  AC50: 6.51 µM [rising, single point]

## CCNC(=O)COc1ccc(/C=C2\COc3ccccc3C2=O)cc1OC
[1]
  AC50: 6.51 µM [falling, single point]

## Cc1c(C#N)c2ncn(Cc3ccccc3)c(=O)c2n1-c1ccccc1
  cell number change: 0.0698%
[1]
  AC50: 0.651 µM [rising, full curve, poor fit]

## CCN(C(=O)N(CC)c1ccccc1)c1ccccc1
  cell number change: -26.9%
[2]
  AC50: 1.03 µM [rising, single point]
[1]
  AC50: 29.1 µM [falling, single point]

## CSC(=O)CC(=O)NC(=O)c1ccccc1
[1]
  AC50: 4.11 µM [falling, partial curve]

## CCOc1ccc(NC(=O)c2cccc(NC3=NC4CS(=O)(=O)CC4S3)c2)cc1 (stereo not given)
  cell number change: -5.48%

## O=C(Nc1cccc2ncccc12)C(c1ccccc1)c1ccccc1
  cell number change: -0.308%
[2]
  AC50: 0.206 µM [falling, full curve]
[1]
  AC50: 0.092 µM [falling, full curve, poor fit]

## CCOc1ccc(C(=O)Nn2cnnc2)cc1
  cell number change: -8.1%
[1]
  AC50: 7.31 µM [falling, partial curve]

## O=C(Nc1ccc(F)cc1F)c1csc(-c2ccncc2)n1
  cell number change: 10.5%
[1]
  AC50: 3.26 µM [falling, full curve]

## CC(C)(C)c1ccc(C(=O)N2CCN(c3ccc(N4CCOCC4)nn3)CC2)cc1
  cell number change: 39.2%
[2]
  AC50: 18.4 µM [rising, single point]

## S=C(NCc1ccccc1)NCc1ccco1
  cell number change: -7.43%
[1]
  AC50: 6.51 µM [falling, single point]

## Cc1cc(C(=O)OCC(=O)c2ccccc2)c2ccccc2n1
  cell number change: -21.9%

## CC(C)(Oc1ccc(Cl)cc1)C(=O)OCC(=O)NCCc1ccc(S(N)(=O)=O)cc1
  cell number change: -21.3%
[1]
  AC50: 4.11 µM [falling, full curve, poor fit]

## CC1(C)CC(=O)C(Sc2nnc(-c3ccc(NS(C)(=O)=O)cc3)n2Cc2ccco2)C(=O)C1
  cell number change: 0.936%
[1]
  AC50: 0.116 µM [falling, full curve, poor fit]

## Cc1cc(C(=O)CSc2nc3ccccc3n2C)c(C)n1C
  cell number change: 19%
[2]
  AC50: 3.26 µM [rising, single point]
[1]
  AC50: 7.31 µM [rising, single point]

## CCCCC(=O)NC(=S)Nc1ccccc1N1CCCCC1
  cell number change: 28.5%
[1]
  AC50: 18.4 µM [rising, single point]

## O=C(CCC(=O)N(CC(=O)NC1CCCC1)c1cccc(F)c1)Nc1nccs1
  cell number change: 915%
[2]
  AC50: 29.1 µM [rising, single point]

## COc1ccc(C(C)=O)cc1COC(=O)c1cccc(N(C)C)c1
  cell number change: 0.576%
[1]
  AC50: 0.517 µM [rising, full curve]
